Results from US6344439B1, “Agents for promoting bone formation” (priority 1995, dated 2002).
At least one compound was matched to its structure with a doubt left.

Tests used:
[1] = system: osteoblasts of rat fetal calvaria; assay type: cell-based; conditions: at 10^−8M
[2] = system: osteoblasts of rat fetal calvaria; conditions: positive control 10^−8M, compared with the non-treated group

C[C@@H]1C[C@H]2[C@@H]3CCC4=CC(=O)C=C[C@]4(C)[C@@]3(F)[C@@H](O)C[C@]2(C)[C@@]1(O)C(=O)CO [Dexamethasone, reference compound]
noticeable promoting effects: Effect on alkaline phosphatase activity (in words) [1] | Effect on the area of the calcified region (in words) [2] | Effect on the number of bone tuberculum (in words) [2]
